Literature values as cited in patent US7537786B2, “Complex of drug-carbon nanohorn and a process for producing the complex” (NEC Corporation, priority 2005, dated 2009).

Conditions: 25° C.; cited from earlier work

C[C@@H]1C[C@H]2[C@@H]3CCC4=CC(=O)C=C[C@]4(C)[C@@]3(F)[C@@H](O)C[C@]2(C)[C@@]1(O)C(=O)CO [DEX, Dexamethasone]
solubility: 10 mg/100 ml H2O
